This assay deals with T1, NUDT8 (UniProt Q8WV74).
T1 sequence (whole entry): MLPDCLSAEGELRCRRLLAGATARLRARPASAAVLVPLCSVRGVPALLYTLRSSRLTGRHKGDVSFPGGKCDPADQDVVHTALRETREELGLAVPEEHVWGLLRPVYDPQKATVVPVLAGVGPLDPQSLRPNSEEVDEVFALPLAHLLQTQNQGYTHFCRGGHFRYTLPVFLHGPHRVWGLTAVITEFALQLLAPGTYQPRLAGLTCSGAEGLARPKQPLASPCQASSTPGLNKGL
In words: NP40-soluble protein abundance relative to vehicle (solubility fold change) (ratio); higher = more soluble protein in presence of GTP. How it is done:
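Solubility proteome profiling in Jurkat crude lysate. Lysate was treated with Mg-GTP (0.1-10 mM) for 10 min at room temperature and 3 min at 37 °C, then solubilised with 0.8% NP40 and benzonase, followed by ultracentrifugation. Proteins were quantified by TMT10 LC-MS/MS; the value is the NP40-soluble abundance relative to the NP40-processed vehicle, from 3 independent experiments.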

± gives the standard deviation of the averaged measurements. This is one part of the list.

Results on one molecule are retold here after the supplement of paper PMC6411743.

Regarding `Nc1nc2c(ncn2[C@@H]2O[C@H](COP(=O)(O)OP(=O)(O)OP(=O)(O)O)[C@@H](O)[C@H]2O)c(=O)[nH]1` [guanosine triphosphate], the NP40-soluble protein abundance came to 0.918 ± 0.07 (concentration: 0.1mM); 0.901 ± 0.057 (concentration: 0.5mM); 1.01 ± 0.054 (concentration: 1mM); 1.04 ± 0.049 (concentration: 2mM); 1.07 ± 0.078 (concentration: 4mM); 1.02 ± 0.033 (concentration: 6mM). The NP40-soluble protein abundance was determined as 0.973 ± 0.1 (concentration: 8mM) and 1.04 ± 0.1 (concentration: 10mM).
